According to PMC9779606, “Synthesis, Structural Characterization and Biological Activity Evaluation of Novel Cu(II) Complexes with 3-(trifluoromethyl)phenylthiourea Derivatives” (International Journal of Molecular Sciences, 2022):

How the values were obtained:
Assay in all cases: Cytotoxicity, MTT assay
Assay type in all cases: cell-based, human
Details in all cases: SI = IC50 for normal cell line (HaCaT)/IC50 cancer cell line
[1] = test system: SW620 (metastatic colon cancer)
Protocol: (§1) MTT assay was performed as previously described. Experiments were repeated three times. […] Decreased relative MTT level means decreased cell viability.

[2] = test system: SW480 (primary colon cancer)
Protocol: as §1

[3] = test system: PC3 (metastatic prostate cancer)
Protocol: as §1

Compound | SI SW620 (Selectivity Index) [1] | SI SW480 (Selectivity Index) [2] | SI PC3 (Selectivity Index) [3]
FC(F)(F)c1cccc([N-]C(=S)NCCc2ccccc2)c1.FC(F)(F)c1cccc([N-]C(=S)NCCc2ccccc2)c1.O.[Cu+2] [Cu1, Copper(II) Complex with 1-(2-phenylethyl)-3-[3-(trifluoromethyl)phenyl]thiourea] | 6.8 | 6.3 | 4.3
FC(F)(F)c1cccc([N-]C(=S)Nc2cccc(Br)c2)c1.FC(F)(F)c1cccc([N-]C(=S)Nc2cccc(Br)c2)c1.[Cu+2] [Cu4, Copper(II) Complex with 1-(3-bromophenyl)-3-[3-(trifluoromethyl)phenyl] thiourea] | 5.6 | 4.3 | 5.5
FC(F)(F)c1cccc([N-]C(=S)NCc2ccccc2)c1.FC(F)(F)c1cccc([N-]C(=S)NCc2ccccc2)c1.[Cu+2] [Cu3, Copper(II) Complex with 1-benzyl-3-[3-(trifluoromethyl)phenyl]thiourea] | 1.4 | 1.7 | 1.3
O.O=[N+]([O-])c1cc(NC(=S)[N-]c2cccc(C(F)(F)F)c2)ccc1Cl.O=[N+]([O-])c1cc(NC(=S)[N-]c2cccc(C(F)(F)F)c2)ccc1Cl.[Cu+2] [Cu5, Copper(II) Complex with 1-(4-chloro-3-nitrophenyl)-3-[3-(trifluoromethyl)phenyl]thiourea] | 6.9 | 9.1 | 11.5
CC(NC(=S)[N-]c1cccc(C(F)(F)F)c1)c1ccccc1.CC(NC(=S)[N-]c1cccc(C(F)(F)F)c1)c1ccccc1.[Cu+2] (racemic) [Cu2, Copper(II) Complex with 1-(1-phenylethyl)-3-[3-(trifluoromethyl)phenyl]thiourea] | 9.4 | 5.3 | 2.4
